From paper PMC12528744 come the findings set out here.

Protein sequences, listed by entry. Tags and fused reporters are not part of them.
UniProt Q969G3: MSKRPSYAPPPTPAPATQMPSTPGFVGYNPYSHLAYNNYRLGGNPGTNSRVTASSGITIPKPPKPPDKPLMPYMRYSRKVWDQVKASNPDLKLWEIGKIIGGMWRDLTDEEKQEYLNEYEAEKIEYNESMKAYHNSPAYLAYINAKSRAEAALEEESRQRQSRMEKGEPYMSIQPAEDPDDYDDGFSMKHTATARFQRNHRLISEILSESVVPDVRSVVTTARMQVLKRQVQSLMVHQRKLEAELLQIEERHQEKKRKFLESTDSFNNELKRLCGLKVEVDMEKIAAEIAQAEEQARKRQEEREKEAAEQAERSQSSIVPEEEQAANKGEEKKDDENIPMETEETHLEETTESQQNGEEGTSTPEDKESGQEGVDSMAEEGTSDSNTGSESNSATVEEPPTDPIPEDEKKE
UniProt Q9NPF5: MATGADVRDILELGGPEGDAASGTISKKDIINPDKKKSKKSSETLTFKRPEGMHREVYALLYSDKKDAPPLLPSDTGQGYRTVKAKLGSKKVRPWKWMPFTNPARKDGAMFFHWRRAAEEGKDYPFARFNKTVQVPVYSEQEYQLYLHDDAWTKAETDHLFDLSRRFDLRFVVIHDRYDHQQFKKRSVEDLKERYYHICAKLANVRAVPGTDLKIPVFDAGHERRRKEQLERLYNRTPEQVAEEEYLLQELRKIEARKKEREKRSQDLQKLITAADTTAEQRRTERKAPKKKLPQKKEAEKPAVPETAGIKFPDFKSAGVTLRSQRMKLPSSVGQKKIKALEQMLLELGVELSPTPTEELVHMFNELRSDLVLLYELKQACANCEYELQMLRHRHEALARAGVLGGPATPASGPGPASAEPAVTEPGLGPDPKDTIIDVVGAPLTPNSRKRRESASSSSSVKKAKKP

The assay has as its target T1, Flag-tagged human GLDC (glycine decarboxylase), wild type (human) (UniProt P23378).
T1 sequence (chain, phosphotyrosine at Y993 and Y1008 after EGF stimulation or SRC overexpression): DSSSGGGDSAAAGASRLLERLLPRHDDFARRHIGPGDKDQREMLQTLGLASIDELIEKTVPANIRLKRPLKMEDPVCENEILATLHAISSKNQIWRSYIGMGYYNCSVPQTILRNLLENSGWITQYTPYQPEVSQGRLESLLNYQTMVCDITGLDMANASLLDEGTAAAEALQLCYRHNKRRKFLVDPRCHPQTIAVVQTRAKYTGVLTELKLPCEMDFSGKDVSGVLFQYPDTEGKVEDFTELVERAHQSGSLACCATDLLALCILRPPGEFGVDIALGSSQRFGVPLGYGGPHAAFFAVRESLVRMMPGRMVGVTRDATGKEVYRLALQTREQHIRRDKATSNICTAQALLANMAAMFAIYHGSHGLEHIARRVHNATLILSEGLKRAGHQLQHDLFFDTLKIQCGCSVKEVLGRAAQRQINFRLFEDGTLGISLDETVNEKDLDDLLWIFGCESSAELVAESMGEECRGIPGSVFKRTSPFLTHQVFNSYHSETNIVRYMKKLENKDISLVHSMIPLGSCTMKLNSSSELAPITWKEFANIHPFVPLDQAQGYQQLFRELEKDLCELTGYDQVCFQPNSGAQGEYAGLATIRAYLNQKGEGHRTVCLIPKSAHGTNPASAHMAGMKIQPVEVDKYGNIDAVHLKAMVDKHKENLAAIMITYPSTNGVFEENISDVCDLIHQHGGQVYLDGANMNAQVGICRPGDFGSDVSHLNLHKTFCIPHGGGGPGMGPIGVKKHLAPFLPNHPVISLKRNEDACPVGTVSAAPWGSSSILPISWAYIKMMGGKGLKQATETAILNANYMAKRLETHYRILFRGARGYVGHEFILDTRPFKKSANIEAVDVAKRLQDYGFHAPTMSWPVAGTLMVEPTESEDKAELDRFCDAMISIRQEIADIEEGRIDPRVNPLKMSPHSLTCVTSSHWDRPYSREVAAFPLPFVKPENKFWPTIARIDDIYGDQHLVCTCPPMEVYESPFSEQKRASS
The assay is described as follows: affinity purification with mass spectrometry; HEK293/EGFR cells transfected with Flag-tagged human GLDC for 24 h, with or without EGF 100 ng/ml for 6 h; anti-Flag immunoprecipitation; compared with mock.

Results are given in words; binding and its absence hold for the method and conditions named. In cells and extracts the contact can be indirect. A yes stands for co-enrichment or nearness to the bait. Other partners may have been found. Where a sequence is shown, tags or fusion partners need not be part of it.

Consider “SMARCE1, endogenous (from UniProt Q969G3 1-411)”, for which the binding result is “binds”. “DMAP1, endogenous (from UniProt Q9NPF5 1-467)”: the binding entry was “binds”.
